Data: the supplement of paper PMC8728848
This is one part of the list.

Tests used:
Assay in all cases: glycan array binding signal (z-score within array); higher = stronger binding
Settings in all cases: glycan notation: IUPAC condensed, linker removed
[1] = target: Gal(b1-4)Glc
How it was run: (§1)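 Glycan array data were curated from 3228 arrays in the Consortium for Functional Glycomics database and kept only where the protein sequence was available. Glycan names were converted to IUPAC-condensed notation, and columns mapping to the same glycan were averaged. The binding signal is a within-array Z-score, averaged across arrays of the same protein sequence at different concentrations or buffers and across linkers. Negative Z-scores can be read as non-binding.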

[2] = target: Gal(b1-4)Glc6S
How it was run: as §1

[3] = target: Gal(b1-4)GlcNAc
How it was run: as §1

[4] = target: Gal(b1-4)GlcNAc(a1-6)Gal(b1-4)GlcNAc
How it was run: as §1

[5] = target: Gal(b1-4)GlcNAc(b1-2)Man
How it was run: as §1

[6] = target: Gal(b1-4)GlcNAc(b1-2)Man(a1-3)Man(b1-4)GlcNAc(b1-4)GlcNAc
How it was run: as §1

[7] = target: Gal(b1-4)GlcNAc(b1-2)Man(a1-3)[Gal(b1-4)GlcNAc(b1-2)Man(a1-6)]Man(b1-4)GlcNAc(b1-4)GlcNAc
How it was run: as §1

[8] = target: Gal(b1-4)GlcNAc(b1-2)Man(a1-3)[Gal(b1-4)GlcNAc(b1-2)Man(a1-6)]Man(b1-4)GlcNAc(b1-4)[Fuc(a1-6)]GlcNAc
How it was run: as §1

[9] = target: Gal(b1-4)GlcNAc(b1-2)Man(a1-3)[Gal(b1-4)GlcNAc(b1-2)Man(a1-6)][Gal(b1-4)GlcNAc(b1-4)]Man(b1-4)GlcNAc(b1-4)[Fuc(a1-6)]GlcNAc
How it was run: as §1

[10] = target: Gal(b1-4)GlcNAc(b1-2)Man(a1-3)[Gal(b1-4)GlcNAc(b1-2)Man(a1-6)][GlcNAc(b1-4)]Man(b1-4)GlcNAc(b1-4)[Fuc(a1-6)]GlcNAc
How it was run: as §1

[11] = target: Gal(b1-4)GlcNAc(b1-2)Man(a1-3)[GlcNAc(b1-2)Man(a1-6)]Man(b1-4)GlcNAc(b1-4)GlcNAc
How it was run: as §1

[12] = target: Gal(b1-4)GlcNAc(b1-2)Man(a1-3)[GlcNAc(b1-4)][Gal(b1-4)GlcNAc(b1-2)Man(a1-6)]Man(b1-4)GlcNAc(b1-4)GlcNAc
How it was run: as §1

[13] = target: Gal(b1-4)GlcNAc(b1-2)Man(a1-3)[Man(a1-6)]Man(b1-4)GlcNAc(b1-4)GlcNAc
How it was run: as §1

[14] = target: Gal(b1-4)GlcNAc(b1-2)Man(a1-6)Man(b1-4)GlcNAc(b1-4)GlcNAc
How it was run: as §1

[15] = target: Gal(b1-4)GlcNAc(b1-2)Man(a1-6)[GlcNAc(b1-2)Man(a1-3)]Man(b1-4)GlcNAc(b1-4)GlcNAc
How it was run: as §1

[16] = target: Gal(b1-4)GlcNAc(b1-2)Man(a1-6)[Man(a1-3)]Man(b1-4)GlcNAc(b1-4)GlcNAc
How it was run: as §1

[17] = target: Gal(b1-4)GlcNAc(b1-2)[Gal(b1-4)GlcNAc(b1-4)]Man(a1-3)[Gal(b1-4)GlcNAc(b1-2)Man(a1-6)]Man(b1-4)GlcNAc(b1-4)GlcNAc
How it was run: as §1

[18] = target: Gal(b1-4)GlcNAc(b1-2)[Gal(b1-4)GlcNAc(b1-4)]Man(a1-3)[Gal(b1-4)GlcNAc(b1-2)[Gal(b1-4)GlcNAc(b1-6)]Man(a1-6)]Man(b1-4)GlcNAc(b1-4)GlcNAc
How it was run: as §1

[19] = target: Gal(b1-4)GlcNAc(b1-2)[Gal(b1-4)GlcNAc(b1-4)]Man(a1-3)[GlcNAc(b1-4)][Gal(b1-4)GlcNAc(b1-2)Man(a1-6)]Man(b1-4)GlcNAc(b1-4)GlcNAc
How it was run: as §1

[20] = target: Gal(b1-4)GlcNAc(b1-2)[Gal(b1-4)GlcNAc(b1-4)]Man(a1-3)[GlcNAc(b1-4)][Gal(b1-4)GlcNAc(b1-2)[Gal(b1-4)GlcNAc(b1-6)]Man(a1-6)]Man(b1-4)GlcNAc(b1-4)GlcNAc
How it was run: as §1

[21] = target: Gal(b1-4)GlcNAc(b1-2)[Gal(b1-4)GlcNAc(b1-6)]Man(a1-6)[Gal(b1-4)GlcNAc(b1-2)Man(a1-3)]Man(b1-4)GlcNAc(b1-4)GlcNAc
How it was run: as §1

[22] = target: Gal(b1-4)GlcNAc(b1-2)[Gal(b1-4)GlcNAc(b1-6)]Man(a1-6)[Gal(b1-4)GlcNAc(b1-2)Man(a1-3)]Man(b1-4)GlcNAc(b1-4)[Fuc(a1-6)]GlcNAc
How it was run: as §1

[23] = target: Gal(b1-4)GlcNAc(b1-2)[Gal(b1-4)GlcNAc(b1-6)]Man(a1-6)[GlcNAc(b1-4)][Gal(b1-4)GlcNAc(b1-2)Man(a1-3)]Man(b1-4)GlcNAc(b1-4)GlcNAc
How it was run: as §1

[24] = target: Gal(b1-4)GlcNAc(b1-2)[Gal(b1-4)GlcNAc(b1-6)]Man(a1-6)[GlcNAc(b1-4)][Gal(b1-4)GlcNAc(b1-2)[Gal(b1-4)GlcNAc(b1-4)]Man(a1-3)]Man(b1-4)GlcNAc(b1-4)[Fuc(a1-6)]GlcNAc
How it was run: as §1

[25] = target: Gal(b1-4)GlcNAc(b1-3)Gal(b1-3)GalNAc
How it was run: as §1

[26] = target: Gal(b1-4)GlcNAc(b1-3)Gal(b1-3)GlcNAc
How it was run: as §1

[27] = target: Gal(b1-4)GlcNAc(b1-3)Gal(b1-4)Glc
How it was run: as §1

[28] = target: Gal(b1-4)GlcNAc(b1-3)Gal(b1-4)GlcNAc
How it was run: as §1

[29] = target: Gal(b1-4)GlcNAc(b1-3)Gal(b1-4)GlcNAc(b1-2)Man(a1-3)[Gal(b1-4)GlcNAc(b1-3)Gal(b1-4)GlcNAc(b1-2)Man(a1-6)]Man(b1-4)GlcNAc(b1-4)GlcNAc
How it was run: as §1

[30] = target: Gal(b1-4)GlcNAc(b1-3)Gal(b1-4)GlcNAc(b1-2)Man(a1-3)[Gal(b1-4)GlcNAc(b1-3)Gal(b1-4)GlcNAc(b1-2)Man(a1-6)]Man(b1-4)GlcNAc(b1-4)[Fuc(a1-6)]GlcNAc
How it was run: as §1

B1: Thrombomodulin Extracellular (Mus musculus), P15306 (protein)
chain: MLGIFFLGVLAPASLGLSALAKLQPTGSQCVEHECFALFQGPATFLDASQACQRLQGHLMTVRSSVAADVISLLLSQSSMDLGPWIGLQLPQGCDDPVHLGPLRGFQWVTGDNHTSYSRWARPNDQTAPLCGPLCVTVSTATEAAPGEPAWEEKPCETETQGFLCEFYFTASCRPLTVNTRDPEAAHISSTYNTPFGVSGADFQTLPVGSSAAVEPLGLELVCRAPPGTSEGHWAWEATGAWNCSVENGGCEYLCNRSTNEPRCLCPRDMDLQADGRSCARPVVQSCNELCEHFCVSNAEVPGSYSCMCETGYQLAADGHRCEDVDDCKQGPNPCPQLCVNTKGGFECFCYDGYELVDGECVELLDPCFGSNCEFQCQPVSPTDYRCICAPGFAPKPDEPHKCEMFCNETSCPADCDPNSPTVCECPEGFILDEGSVCTDIDECSQGECFTSECRNFPGSYECICGPDTALAGQISKDCDPIPVREDTKEEEGSGEPPVSPTPGSPTGPPSARPVHSGVLIGISIASLSLVVALLALLCHLRKKQGAARAELEYKCASSAKEVVLQHVRTDRTLQKF
For B1, the “glycan array binding signal (z-score)” value [1] was 0.133, the “glycan array binding signal (z-score)” value [2] was 0.375 and the “glycan array binding signal (z-score)” value [3] was 0.069. The “glycan array binding signal (z-score)” value [4] was -1.19, the “glycan array binding signal (z-score)” value [5] was 0.594 and the “glycan array binding signal (z-score)” value [6] was -1.32. For the same binder, the “glycan array binding signal (z-score)” value [7] was -0.43, the “glycan array binding signal (z-score)” value [8] was 1.71 and the “glycan array binding signal (z-score)” value [9] was -0.094. The “glycan array binding signal (z-score)” value [10] was -0.225, the “glycan array binding signal (z-score)” value [11] was -1.49 and the “glycan array binding signal (z-score)” value [12] was -0.475. For the same binder, the “glycan array binding signal (z-score)” value [13] was -0.973, the “glycan array binding signal (z-score)” value [14] was -0.7 and the “glycan array binding signal (z-score)” value [15] was 0.428. For the same binder, the “glycan array binding signal (z-score)” value [16] was -0.694, the “glycan array binding signal (z-score)” value [17] was 1.13 and the “glycan array binding signal (z-score)” value [18] was -0.359. The “glycan array binding signal (z-score)” value [19] was 0.453, the “glycan array binding signal (z-score)” value [20] was -1.17 and the “glycan array binding signal (z-score)” value [21] was 0.028. For the same binder, the “glycan array binding signal (z-score)” value [22] was -0.135, the “glycan array binding signal (z-score)” value [23] was -0.69 and the “glycan array binding signal (z-score)” value [24] was -0.329. For the same binder, the “glycan array binding signal (z-score)” value [25] was 0.085, the “glycan array binding signal (z-score)” value [26] was -2.24 and the “glycan array binding signal (z-score)” value [27] was -0.215. The “glycan array binding signal (z-score)” value [28] was -0.512, the “glycan array binding signal (z-score)” value [29] was 0.231 and the “glycan array binding signal (z-score)” value [30] was 0.97.
